# Data reported in publication PMC8131845.
# Amino acid sequences for entries named in this document (tags omitted).
# UniProt Q9QYB1: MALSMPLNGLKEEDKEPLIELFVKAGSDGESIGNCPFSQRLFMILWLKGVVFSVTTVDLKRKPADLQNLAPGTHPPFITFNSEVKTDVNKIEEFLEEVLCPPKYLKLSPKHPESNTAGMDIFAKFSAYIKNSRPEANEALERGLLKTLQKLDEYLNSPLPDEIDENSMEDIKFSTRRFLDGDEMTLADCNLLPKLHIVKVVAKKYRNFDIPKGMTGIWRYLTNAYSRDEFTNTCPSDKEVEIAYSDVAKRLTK
# UniProt Q8BXK9: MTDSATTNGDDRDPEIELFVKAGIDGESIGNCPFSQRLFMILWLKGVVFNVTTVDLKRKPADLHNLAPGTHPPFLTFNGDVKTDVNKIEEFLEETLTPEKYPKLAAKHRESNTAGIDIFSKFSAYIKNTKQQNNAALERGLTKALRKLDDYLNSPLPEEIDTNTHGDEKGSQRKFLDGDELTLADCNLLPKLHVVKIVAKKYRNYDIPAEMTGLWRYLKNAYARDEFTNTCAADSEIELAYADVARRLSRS
# Results are given in words; binding and its absence hold for the method and conditions named. In cells and extracts the contact can be indirect. Some entries that bind do so weakly or less than the wild type. For some assays here: Tags and fused reporters may be left off the sequences shown.
# T1: Myc-tagged GRXCR2 (mouse) (UniProt Q3TYR5)
# T1 sequence: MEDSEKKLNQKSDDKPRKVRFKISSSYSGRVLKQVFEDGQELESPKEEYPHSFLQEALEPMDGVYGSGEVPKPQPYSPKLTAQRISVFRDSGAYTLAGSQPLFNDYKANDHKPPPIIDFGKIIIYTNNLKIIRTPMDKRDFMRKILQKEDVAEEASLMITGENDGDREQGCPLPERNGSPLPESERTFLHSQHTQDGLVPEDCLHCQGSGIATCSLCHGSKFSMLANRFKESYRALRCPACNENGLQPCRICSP
# T2: Taperin (mouse) (UniProt A2AI08)
# T2 sequence: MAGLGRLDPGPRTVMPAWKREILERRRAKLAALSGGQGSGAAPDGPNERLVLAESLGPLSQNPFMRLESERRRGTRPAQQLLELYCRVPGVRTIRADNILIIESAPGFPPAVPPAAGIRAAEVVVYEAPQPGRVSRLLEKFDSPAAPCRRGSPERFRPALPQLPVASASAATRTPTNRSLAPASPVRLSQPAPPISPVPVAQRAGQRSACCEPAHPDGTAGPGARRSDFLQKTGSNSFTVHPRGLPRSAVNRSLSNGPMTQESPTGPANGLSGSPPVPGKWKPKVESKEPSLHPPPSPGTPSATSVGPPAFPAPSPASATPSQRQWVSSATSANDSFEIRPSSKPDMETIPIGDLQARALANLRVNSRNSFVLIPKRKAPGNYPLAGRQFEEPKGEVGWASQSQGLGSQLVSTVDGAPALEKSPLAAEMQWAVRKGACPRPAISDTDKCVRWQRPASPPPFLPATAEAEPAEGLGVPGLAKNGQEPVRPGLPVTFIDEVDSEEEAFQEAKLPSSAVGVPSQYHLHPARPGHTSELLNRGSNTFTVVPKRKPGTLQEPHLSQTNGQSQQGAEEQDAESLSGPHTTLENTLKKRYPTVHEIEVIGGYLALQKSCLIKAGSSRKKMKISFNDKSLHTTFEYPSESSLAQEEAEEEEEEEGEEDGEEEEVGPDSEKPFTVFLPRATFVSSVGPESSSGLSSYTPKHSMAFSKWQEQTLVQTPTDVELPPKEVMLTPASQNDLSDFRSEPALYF
# How the values were obtained:
# Test in all cases: co-IP; extracts of HEK293 cells transfected with tagged constructs; immunoprecipitation with Myc-antibody (Figure 1C) or HA-antibody (Figure 1D-G), western blotting of co-expressed proteins
# [1] = biological target: T1, Myc-tagged GRXCR2 (mouse)
# Taperin (mouse) = biological target: T2, Taperin (mouse)
# [2] = biological target: CLIC4 (paralog of CLIC5) (mouse) (UniProt Q9QYB1)
# HA-tagged CLIC5 (mouse) = HA-tagged CLIC5 (mouse) (UniProt Q8BXK9)
# [3] = biological target: Domain-swapped CLIC protein: N terminal 94 aa of CLIC5 on the rest of CLIC4 (mouse) (UniProt Q8BXK9+Q9QYB1)
# [4] = biological target: Domain-swapped CLIC protein: N terminal 94 aa of CLIC4 on the rest of CLIC5 (mouse) (UniProt Q9QYB1+Q8BXK9)
binding (Taperin (mouse)),binding (HA-tagged CLIC5 (mouse)),Molecule,further results
,,GFP-tagged CLIC5 (from UniProt Q8BXK9 1-251),binding [1]: binds
binds,,"GRXCR2 (Δ36–95) (protein, UniProt Q3TYR5) MEDSEKKLNQKSDDKPRKVRFKISSSYSGRVLKQVLAGSQPLFNDYKANDHKPPPIIDFGKIIIYTNNLKIIRTPMDKRDFMRKILQKEDVAEEASLMITGENDGDREQGCPLPERNGSPLPESERTFLHSQHTQDGLVPEDCLHCQGSGIATCSLCHGSKFSMLANRFKESYRALRCPACNENGLQPCRICSP",
,binds,"Taperin (protein, UniProt A2AI08 1-749) MAGLGRLDPGPRTVMPAWKREILERRRAKLAALSGGQGSGAAPDGPNERLVLAESLGPLSQNPFMRLESERRRGTRPAQQLLELYCRVPGVRTIRADNILIIESAPGFPPAVPPAAGIRAAEVVVYEAPQPGRVSRLLEKFDSPAAPCRRGSPERFRPALPQLPVASASAATRTPTNRSLAPASPVRLSQPAPPISPVPVAQRAGQRSACCEPAHPDGTAGPGARRSDFLQKTGSNSFTVHPRGLPRSAVNRSLSNGPMTQESPTGPANGLSGSPPVPGKWKPKVESKEPSLHPPPSPGTPSATSVGPPAFPAPSPASATPSQRQWVSSATSANDSFEIRPSSKPDMETIPIGDLQARALANLRVNSRNSFVLIPKRKAPGNYPLAGRQFEEPKGEVGWASQSQGLGSQLVSTVDGAPALEKSPLAAEMQWAVRKGACPRPAISDTDKCVRWQRPASPPPFLPATAEAEPAEGLGVPGLAKNGQEPVRPGLPVTFIDEVDSEEEAFQEAKLPSSAVGVPSQYHLHPARPGHTSELLNRGSNTFTVVPKRKPGTLQEPHLSQTNGQSQQGAEEQDAESLSGPHTTLENTLKKRYPTVHEIEVIGGYLALQKSCLIKAGSSRKKMKISFNDKSLHTTFEYPSESSLAQEEAEEEEEEEGEEDGEEEEVGPDSEKPFTVFLPRATFVSSVGPESSSGLSSYTPKHSMAFSKWQEQTLVQTPTDVELPPKEVMLTPASQNDLSDFRSEPALYF",binding [2]: binds
binds,,"GRXCR2 (construct of the co-IP with taperin, Supplementary Figure 1B) (protein, UniProt Q3TYR5 1-254) MEDSEKKLNQKSDDKPRKVRFKISSSYSGRVLKQVFEDGQELESPKEEYPHSFLQEALEPMDGVYGSGEVPKPQPYSPKLTAQRISVFRDSGAYTLAGSQPLFNDYKANDHKPPPIIDFGKIIIYTNNLKIIRTPMDKRDFMRKILQKEDVAEEASLMITGENDGDREQGCPLPERNGSPLPESERTFLHSQHTQDGLVPEDCLHCQGSGIATCSLCHGSKFSMLANRFKESYRALRCPACNENGLQPCRICSP",
,binds,"GFP tagged GRXCR2 (protein, UniProt Q3TYR5 1-254) MEDSEKKLNQKSDDKPRKVRFKISSSYSGRVLKQVFEDGQELESPKEEYPHSFLQEALEPMDGVYGSGEVPKPQPYSPKLTAQRISVFRDSGAYTLAGSQPLFNDYKANDHKPPPIIDFGKIIIYTNNLKIIRTPMDKRDFMRKILQKEDVAEEASLMITGENDGDREQGCPLPERNGSPLPESERTFLHSQHTQDGLVPEDCLHCQGSGIATCSLCHGSKFSMLANRFKESYRALRCPACNENGLQPCRICSP",binding [3]: binds; binding [4]: binds
